At least one compound was matched to its structure with a doubt left.
System: EPIC1
Experiment: Decitabine treatment: lncRNA expression and CpG island methylation in breast cancer cell lines
Assay type: cell-based, human

Nc1ncn([C@H]2C[C@H](O)[C@@H](CO)O2)c(=O)n1 [Decitabine]
EPIC1 expression and demethylation (EPIC1 hypermethylated cell lines (e.g., MB231)): dosage- and time-dependent EPIC1 expression and demethylation
EPIC1 expression and demethylation (cells with EPIC1 hypomethylation and overexpression (e.g., MCF-7)): not in cells that already exhibit EPIC1 hypomethylation and overexpression
expression of seven other EA lncRNAs (with decrease of DNA methylation level of their CpG islands): significantly induced EA IncRNAs expression
